PubChem BioAssay AID720505 | Drosophila RNAi Screening Center, 2013
Assay: 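Fly regulators or components of the CRAC channel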 (primary screen). System: Drosophila S2R+ cells. Knock-down reagent: long dsRNA against Drosophila genes. Treatment: thapsigargin (2 µM) in calcium-free buffer to empty internal stores, then 2 mM calcium added back. Measured: 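Fluo-4 signal in 384-well plates read on a FLIPR after thapsigargin (2 µM, calcium-free) store depletion and 2 mM calcium add-back; unnormalised mean endpoint per well; screen run twice, selected wells retested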. Reading the numbers: calcium signal and retest calcium signal: higher = more calcium entry after store depletion. Rule for the call: 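Knock-downs counted as hits when calcium entry dropped relative to STIM1 positive and Rho1 negative controls present on each plate; roughly 1500 genes called, with reductions of differing size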. Meaning of the calls: active = called as lowering calcium entry; inactive = not called.
The deposit covers about 20,000 reagents; this is a random part of those that have a named target and a result. Over the whole deposit, about 2,100 (10%) got an active call. 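Raw plate signals without normalisation; calls rest on control-based scores that were not deposited; replicate 2 separates called from uncalled poorly.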 Names joined by + are all predicted targets of the reagent. The record does not give: the amount of reagent, the time to read-out.

target gene | amplicon | calcium signal, replicate 1 | calcium signal, replicate 2 | retest calcium signal, replicate 1 | retest calcium signal, replicate 2 | call
fok | DRSC02103 | 120 | 83.4 | – | – | inactive
CG9689 | DRSC18440 | 115 | 105 | – | – | inactive
CG11322 | DRSC02142 | 130 | 89.6 | – | – | inactive
Jhbp5 | DRSC14240 | 144 | 146 | – | – | inactive
Sf3a2 | DRSC09801 | 90.2 | 80.4 | – | – | inactive
CG13036 (retired record) | DRSC09916 | 97.7 | 150 | – | – | inactive
CG1440 | DRSC17915 | 247 | 110 | – | – | inactive
CG31347 | DRSC21582 | 153 | 85.8 | – | – | inactive
CG14857 | DRSC14981 | 122 | 188 | – | – | inactive
Trpgamma | DRSC03626 | 114 | 103 | – | – | inactive
CG8420 | DRSC16418 | 76 | 146 | – | – | active
CG9981 | DRSC20225 | 74.6 | 111 | – | – | inactive
Smyd4-3 | DRSC07041 | 170 | 158 | – | – | inactive
CG3065 | DRSC04333 | 161 | 103 | – | – | inactive
CG12935 | DRSC06248 | 193 | 106 | – | – | inactive
Duba | DRSC10582 | 93.5 | 114 | – | – | inactive
AP-2sigma | DRSC15957 | 65.2 | 86.9 | – | – | active
CG13138 | DRSC02235 | 189 | 149 | – | – | inactive
sv | DRSC17221 | 95.1 | 144 | – | – | inactive
CG14325 | DRSC14804 | 142 | 82.2 | – | – | inactive
CG11560 | DRSC09843 | 91.1 | 74.5 | – | – | inactive
Cbl | DRSC10764 | 97.5 | 92 | – | – | inactive
Cbl | DRSC11111 | 73.1 | 74.2 | – | – | inactive
CG17819 | DRSC15279 | 178 | 192 | – | – | inactive
CG17562 | DRSC15243 | 103 | 91.3 | – | – | inactive
hry | DRSC11353 | 146 | 101 | – | – | inactive
hry | DRSC23249 | 73.3 | 121 | – | – | inactive
hpRNA:CR18854 + IP3K1 | DRSC02218 | 91.2 | 130 | – | – | inactive
CG43316 | DRSC06297 | 99 | 174 | – | – | inactive
Ubqn | DRSC19581 | 81.7 | 112 | – | – | inactive
clos | DRSC06240 | 102 | 160 | – | – | inactive
clos | DRSC06241 | 137 | 121 | – | – | inactive
clos | DRSC06778 | 142 | 129 | – | – | inactive
clos | DRSC21857 | 57.4 | 155 | – | – | active
clos | DRSC22942 | 100 | 184 | – | – | inactive
CG4972 | DRSC02798 | 173 | 155 | – | – | inactive
Treh | DRSC04548 | 181 | 101 | – | – | inactive
CG17230 | DRSC15203 | 93 | 109 | – | – | inactive
Br140 | DRSC06755 | 62.5 | 144 | – | – | active
Lst8 | DRSC18262 | 176 | 143 | – | – | inactive
CG34459 | DRSC06973 | 114 | 112 | – | – | inactive
Pomp | DRSC03201 | 45.2 | 66.6 | – | – | active
cona | DRSC16281 | 206 | 178 | – | – | inactive
mthl10 | DRSC08504 | 102 | 108 | – | – | inactive
mthl10 | DRSC08505 | 93.1 | 84.1 | – | – | inactive
CG3349 | DRSC10359 | 104 | 129 | – | – | inactive
CG8490 | DRSC07194 | 145 | 123 | – | – | inactive
Gr93b | DRSC22063 | 99 | 270 | – | – | inactive
Cul5 | DRSC14723 | 186 | 119 | – | – | inactive
CG17242 | DRSC00493 | 131 | 161 | – | – | inactive
alphaSnap | DRSC11285 | 65 | 66.4 | – | – | active
CG4553 | DRSC15595 | 249 | 165 | – | – | inactive
Try29F | DRSC03466 | 102 | 121 | – | – | inactive
CG5447 | DRSC15801 | 232 | 125 | – | – | inactive

Called active, of those listed so far:
target gene | amplicon | calcium signal, replicate 1 | calcium signal, replicate 2 | retest calcium signal, replicate 1 | retest calcium signal, replicate 2 | call
CG8420 | DRSC16418 | 76 | 146 | – | – | active
AP-2sigma | DRSC15957 | 65.2 | 86.9 | – | – | active
clos | DRSC21857 | 57.4 | 155 | – | – | active
Br140 | DRSC06755 | 62.5 | 144 | – | – | active
Pomp | DRSC03201 | 45.2 | 66.6 | – | – | active
alphaSnap | DRSC11285 | 65 | 66.4 | – | – | active

Additional results follow.
target gene | amplicon | calcium signal, replicate 1 | calcium signal, replicate 2 | retest calcium signal, replicate 1 | retest calcium signal, replicate 2 | call
CG8155 | DRSC07084 | 110 | 122 | – | – | inactive
CG8155 | DRSC21543 | 210 | 106 | – | – | inactive
kek1 | DRSC03551 | 138 | 173 | – | – | inactive
CG1409 | DRSC17910 | 57.8 | 278 | – | – | active
mei-41 | DRSC20350 | 97.6 | 115 | – | – | inactive
dtr | DRSC01847 | 106 | 4696 | – | – | inactive
CG42450 | DRSC20022 | 101 | 87.2 | – | – | inactive
CG42450 | DRSC22751 | 115 | 203 | – | – | inactive
Snmp2 | DRSC10228 | 72.3 | 54.6 | – | – | active
Snmp2 | DRSC10843 | 72.2 | 54.7 | – | – | inactive
CG10887 | DRSC14277 | 93.1 | 133 | 96.7 | 106 | inactive
beta-Spec | DRSC20311 | 85.1 | 131 | – | – | inactive
CG13124 | DRSC02220 | 103 | 113 | – | – | inactive
Rab40 | DRSC19820 | 61.5 | 106 | – | – | active
Cyp4d14 | DRSC18457 | 85.1 | 141 | – | – | inactive
CG8673 | DRSC03105 | 156 | 169 | – | – | inactive
CG5787 | DRSC02895 | 75.4 | 130 | – | – | inactive
CG10175 | DRSC14200 | 219 | 125 | – | – | inactive
CG10175 | DRSC21981 | 80 | 119 | – | – | inactive
BomS4 | DRSC22509 | 80.3 | 157 | – | – | inactive
SLIRP2 | DRSC16363 | 136 | 186 | – | – | inactive
dia | DRSC03519 | 122 | 111 | – | – | inactive
ERR | DRSC10840 | 120 | 112 | – | – | inactive
CG34367 | DRSC02238 | 176 | 146 | – | – | inactive
CG34367 | DRSC02850 | 184 | 115 | – | – | inactive
Ns2 | DRSC06993 | 96.4 | 85.7 | – | – | inactive
rib | DRSC07021 | 130 | 134 | – | – | inactive
CG8516 | DRSC16437 | 169 | 80.9 | – | – | inactive
CG17612 | DRSC00505 | 131 | 248 | – | – | inactive
